In publication PMC2859746 one finds binding data, which are given here for four molecules.

Protein sequences, listed by entry. Tags and fused reporters are not part of them. Lines headed by an entry give the natural chain unless they say otherwise; changes in a name come on top.
UniProt O00716: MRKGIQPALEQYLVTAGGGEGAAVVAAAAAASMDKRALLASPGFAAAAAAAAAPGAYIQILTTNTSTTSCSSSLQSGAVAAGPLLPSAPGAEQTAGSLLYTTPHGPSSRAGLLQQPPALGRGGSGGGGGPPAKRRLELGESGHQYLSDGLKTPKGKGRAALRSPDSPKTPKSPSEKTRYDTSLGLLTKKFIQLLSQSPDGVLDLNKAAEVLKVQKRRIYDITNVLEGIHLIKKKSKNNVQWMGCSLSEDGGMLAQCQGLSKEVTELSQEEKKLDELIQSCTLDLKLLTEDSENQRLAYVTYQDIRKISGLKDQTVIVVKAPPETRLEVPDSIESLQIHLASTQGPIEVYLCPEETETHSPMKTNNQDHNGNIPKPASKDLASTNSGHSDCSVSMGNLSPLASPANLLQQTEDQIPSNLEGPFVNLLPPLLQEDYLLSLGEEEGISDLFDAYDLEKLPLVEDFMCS

Substitutions are numbered along the chain they refer to. Numbers in names are those of the source. These are yes or no findings as the source states them, for the method shown. Binding seen in cells or lysates may run through a third protein. Some binding calls cover weakened binding; strength is not graded here. For part of these data: Where a sequence is shown, tags or fusion partners need not be part of it.

In experiment [1] the target is T1, GST-RB^ΔL, large pocket of pRB (amino acids 379 to 928) with I753A, N757A and M761A (human) (UniProt P06400).
T1 sequence: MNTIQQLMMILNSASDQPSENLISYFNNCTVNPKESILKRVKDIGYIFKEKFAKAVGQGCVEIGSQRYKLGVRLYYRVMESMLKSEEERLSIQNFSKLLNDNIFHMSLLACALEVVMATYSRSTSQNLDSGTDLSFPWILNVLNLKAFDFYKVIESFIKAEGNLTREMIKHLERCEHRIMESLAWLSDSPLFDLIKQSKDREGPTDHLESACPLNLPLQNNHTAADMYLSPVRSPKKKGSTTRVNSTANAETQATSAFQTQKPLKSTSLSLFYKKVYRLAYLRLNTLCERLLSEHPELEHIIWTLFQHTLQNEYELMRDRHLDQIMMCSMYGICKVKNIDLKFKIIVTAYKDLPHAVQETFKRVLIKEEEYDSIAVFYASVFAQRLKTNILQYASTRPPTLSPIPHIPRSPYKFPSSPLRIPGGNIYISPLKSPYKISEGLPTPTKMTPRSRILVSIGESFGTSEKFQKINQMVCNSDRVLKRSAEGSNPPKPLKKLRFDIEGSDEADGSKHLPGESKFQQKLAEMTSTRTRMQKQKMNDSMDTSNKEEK
The experiment can be described thus: pull-down; recombinant GST-RB proteins incubated with whole-cell extracts from C33A cells transfected with CMV-HA-E2F3 and CMV-HA-DP1, or CMV-TAg; bound proteins detected by western blotting (12CA5 or PAb419); only the target purified. Background: In western blotting, separated proteins are transferred to a membrane and probed.

The target in experiment [2] is T2, GST-RB, large pocket of pRB (amino acids 379 to 928), wild type (human) (UniProt P06400).
T2 sequence: T1 sequence with A375I, A379N, A383M
Described as above.

The target of experiment [3] is T3, GST-RB^M704V, large pocket of pRB (amino acids 379 to 928) with M704V (human) (UniProt P06400).
T3 sequence: T1 sequence with M326V, A375I, A379N, A383M
Described as above.

The target of a further experiment is HA-E2F3/HA-DP1 (UniProt O00716). The experiment in a line: co-IP; C33A cells co-transfected with CMV-RB constructs and CMV-TAg or CMV-HA-E2F3 and CMV-HA-DP1; precipitation with PAb419 (TAg) or 12CA5 (HA); bound pRB detected by western blotting with G3-245.

Consider “HA-E2F3/HA-DP1 (from UniProt O00716 1-465; Q14186 1-410) (complex)”, for which the binding result in experiment [1], in experiment [2] and in experiment [3] was “binds” each time.

B1: pRB^ΔL, full-length pRB with I753A, N757A and M761A (CMV-RB^ΔL) (protein, UniProt P06400 1-928)
chain: MPPKTPRKTAATAAAAAAEPPAPPPPPPPEEDPEQDSGPEDLPLVRLEFEETEEPDFTALCQKLKIPDHVRERAWLTWEKVSSVDGVLGGYIQKKKELWGICIFIAAVDLDEMSFTFTELQKNIEISVHKFFNLLKEIDTSTKVDNAMSRLLKKYDVLFALFSKLERTCELIYLTQPSSSISTEINSALVLKVSWITFLLAKGEVLQMEDDLVISFQLMLCVLDYFIKLSPPMLLKEPYKTAVIPINGSPRTPRRGQNRSARIAKQLENDTRIIEVLCKEHECNIDEVKNVYFKNFIPFMNSLGLVTSNGLPEVENLSKRYEEIYLKNKDLDARLFLDHDKTLQTDSIDSFETQRTPRKSNLDEEVNVIPPHTPVRTVMNTIQQLMMILNSASDQPSENLISYFNNCTVNPKESILKRVKDIGYIFKEKFAKAVGQGCVEIGSQRYKLGVRLYYRVMESMLKSEEERLSIQNFSKLLNDNIFHMSLLACALEVVMATYSRSTSQNLDSGTDLSFPWILNVLNLKAFDFYKVIESFIKAEGNLTREMIKHLERCEHRIMESLAWLSDSPLFDLIKQSKDREGPTDHLESACPLNLPLQNNHTAADMYLSPVRSPKKKGSTTRVNSTANAETQATSAFQTQKPLKSTSLSLFYKKVYRLAYLRLNTLCERLLSEHPELEHIIWTLFQHTLQNEYELMRDRHLDQIMMCSMYGICKVKNIDLKFKIIVTAYKDLPHAVQETFKRVLIKEEEYDSIAVFYASVFAQRLKTNILQYASTRPPTLSPIPHIPRSPYKFPSSPLRIPGGNIYISPLKSPYKISEGLPTPTKMTPRSRILVSIGESFGTSEKFQKINQMVCNSDRVLKRSAEGSNPPKPLKKLRFDIEGSDEADGSKHLPGESKFQQKLAEMTSTRTRMQKQKMNDSMDTSNKEEK
Regarding B1, the binding entry in the experiment with HA-E2F3/HA-DP1 is on record as “binds”.

B2: retinoblastoma protein (pRB), full-length wild type (CMV-RB) (protein, UniProt P06400 1-928)
chain: B1 chain with A753I, A757N, A761M
For B2, the binding result with HA-E2F3/HA-DP1 was “binds”.

B3: pRB^M704V, full-length pRB with M704V (CMV-RB^M704V) (protein, UniProt P06400 1-928)
chain: B1 chain with M704V, A753I, A757N, A761M
Take B3: in the experiment with HA-E2F3/HA-DP1, the binding result is given as “binds”.
